According to publication PMC8319428:
Results are given in words; binding and its absence hold for the method and conditions named. In cells and extracts the contact can be indirect. Some binding calls cover weakened binding; strength is not graded here.

Biological target: EGFR-GFP (UniProt P00533)
Assay: co-IP; GFP affinity co-purification: EGFR-GFP captured on GBP (GFP-binding protein)-sepharose beads from lysates of transfected MCF7 cells (wild type or GNAI3 KO; with or without C18:0 or C18:1, 100 uM, 3 h or 24 h; with or without GNAI3 overexpression). Cells were treated with or without EGF 50 ng/mL for 5 min, then cross-linked with 0.5 mM DSP before lysis. Lysis buffer 800 mM NaCl, 1% NP-40; washes 300 mM NaCl, 0.1% NP-40. Gab1 detected by immunoblot.

B1: Gab1 (growth-factor receptor binding 2 (Grb2)-associated binding protein 1) (protein, UniProt Q13480 1-694)
chain: MSGGEVVCSGWLRKSPPEKKLKRYAWKRRWFVLRSGRLTGDPDVLEYYKNDHAKKPIRIIDLNLCQQVDAGLTFNKKEFENSYIFDINTIDRIFYLVADSEEEMNKWVRCICDICGFNPTEEDPVKPPGSSLQAPADLPLAINTAPPSTQADSSSATLPPPYQLINVPPHLETLGIQEDPQDYLLLINCQSKKPEPTRTHADSAKSTSSETDCNDNVPSHKNPASSQSKHGMNGFFQQQMIYDSPPSRAPSASVDSSLYNLPRSYSHDVLPKVSPSSTEADGELYVFNTPSGTSSVETQMRHVSISYDIPPTPGNTYQIPRTFPEGTLGQTSKLDTIPDIPPPRPPKPHPAHDRSPVETCSIPRTASDTDSSYCIPTAGMSPSRSNTISTVDLNKLRKDASSQDCYDIPRAFPSDRSSSLEGFHNHFKVKNVLTVGSVSSEELDENYVPMNPNSPPRQHSSSFTEPIQEANYVPMTPGTFDFSSFGMQVPPPAHMGFRSSPKTPPRRPVPVADCEPPPVDRNLKPDRKVKPAPLEIKPLPEWEELQAPVRSPITRSFARDSSRFPMSPRPDSVHSTTSSSDSHDSEENYVPMNPNLSSEDPNLFGSNSLDGGSSPMIKPKGDKQVEYLDLDLDSGKSTPPRKQKSSGSGSSVADERVDYVVVDQQKTLALKSTREAWTDGRQSTESETPAKSVK
- binding: binds
